# PMC3407074
# Protein sequences, listed by entry. Tags and fused reporters are not part of them. Residues count along the entry.
# UniProt Q8I1Y0, residues 21-378: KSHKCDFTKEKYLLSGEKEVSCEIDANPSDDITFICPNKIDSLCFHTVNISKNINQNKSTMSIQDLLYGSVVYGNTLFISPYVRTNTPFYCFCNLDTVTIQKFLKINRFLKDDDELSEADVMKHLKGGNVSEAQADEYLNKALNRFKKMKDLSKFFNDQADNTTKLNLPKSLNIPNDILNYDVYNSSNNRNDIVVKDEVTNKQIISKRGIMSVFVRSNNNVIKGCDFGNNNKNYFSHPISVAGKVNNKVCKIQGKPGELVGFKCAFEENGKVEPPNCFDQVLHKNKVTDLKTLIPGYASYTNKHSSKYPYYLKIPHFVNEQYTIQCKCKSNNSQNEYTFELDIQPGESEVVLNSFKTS
# No constants are given. Whether binding was seen depends on the method and setting. Binding seen in cells or lysates may run through a third protein. Some results given as binding are weak or reduced against the parent protein; the word gives no strength.
# T1: native P12 (Plasmodium falciparum (endogenous in 3D7 and CS2 parasites)) (UniProt C6KSX0)
# T1 sequence: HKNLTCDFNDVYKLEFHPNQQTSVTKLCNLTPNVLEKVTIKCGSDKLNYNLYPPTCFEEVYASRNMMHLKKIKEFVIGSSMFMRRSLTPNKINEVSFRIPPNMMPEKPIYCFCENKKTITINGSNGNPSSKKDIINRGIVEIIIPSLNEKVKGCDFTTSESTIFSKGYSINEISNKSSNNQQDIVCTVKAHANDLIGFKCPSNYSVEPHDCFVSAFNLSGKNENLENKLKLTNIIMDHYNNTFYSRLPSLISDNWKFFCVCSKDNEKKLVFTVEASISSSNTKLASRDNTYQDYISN
# B1: native P12 (protein, UniProt C6KSX0 26-322)
# chain: T1 sequence
# What was measured:
# [1] = target: T1, native P12 (Plasmodium falciparum (endogenous in 3D7 and CS2 parasites)); test: co-IP; parasite lysate in 1% Triton X-100 in PBS, pre-immune, anti-P12 or anti-P41 rabbit IgG on Protein G agarose, overnight at 4°C; eluted with 0.1 M glycine pH 2.8; western blot
# [2] = target: T1, native P12 (Plasmodium falciparum (endogenous in 3D7 and CS2 parasites)); test: cross-linking; magnet-purified schizonts (CS2 and CS2 Δp41) crosslinked with DSP (0-500 µM) in PBS, 30 minutes at room temperature; non-reducing SDS-PAGE and western blot with anti-P12 or anti-P41
# [3] = target: native P41 (Plasmodium falciparum (endogenous in 3D7 and CS2 parasites)) (UniProt Q8I1Y0); test: co-IP; parasite lysate in 1% Triton X-100 in PBS, pre-immune, anti-P12 or anti-P41 rabbit IgG on Protein G agarose, overnight at 4°C; eluted with 0.1 M glycine pH 2.8; western blot
Molecule,binding [1],binding [2],binding [3]
native P41 (from UniProt Q8I1Y0 21-378),binds,binds,
B1,,no binding,binds
